Laboratory results reported in PubChem BioAssay AID1671190 (National Center for Advancing Translational Sciences (NCATS), 2021).
Several values for one entry are separate records, joined by “and”; a condition that tells them apart may be missing. Equal values may be shown once. The campaign covered roughly 580,000 compounds. About 6,100 (1.1%) were called active. This list was built around the results that the source calls inconclusive (neither active nor inactive); the mix of calls is not that of the screen. Calls come from the whole dose curve; as a rule, active = well fitted inhibition curve with a large enough effect; inconclusive = small, poorly fitted or top-dose-only effect, or another doubt; inactive = no such curve, though single readings can be large or run the other way. A potency beside an inconclusive call is a rough fit, not a confirmed value.
% is set by controls: 0 for no effect and ±100 for the full control effect; potency is the fitted concentration of half-maximal effect.

Chains of the proteins cited; added tags and fusions are not shown. Lines headed by an entry give the natural chain unless they say otherwise; changes in a name come on top.
UniProt P18054: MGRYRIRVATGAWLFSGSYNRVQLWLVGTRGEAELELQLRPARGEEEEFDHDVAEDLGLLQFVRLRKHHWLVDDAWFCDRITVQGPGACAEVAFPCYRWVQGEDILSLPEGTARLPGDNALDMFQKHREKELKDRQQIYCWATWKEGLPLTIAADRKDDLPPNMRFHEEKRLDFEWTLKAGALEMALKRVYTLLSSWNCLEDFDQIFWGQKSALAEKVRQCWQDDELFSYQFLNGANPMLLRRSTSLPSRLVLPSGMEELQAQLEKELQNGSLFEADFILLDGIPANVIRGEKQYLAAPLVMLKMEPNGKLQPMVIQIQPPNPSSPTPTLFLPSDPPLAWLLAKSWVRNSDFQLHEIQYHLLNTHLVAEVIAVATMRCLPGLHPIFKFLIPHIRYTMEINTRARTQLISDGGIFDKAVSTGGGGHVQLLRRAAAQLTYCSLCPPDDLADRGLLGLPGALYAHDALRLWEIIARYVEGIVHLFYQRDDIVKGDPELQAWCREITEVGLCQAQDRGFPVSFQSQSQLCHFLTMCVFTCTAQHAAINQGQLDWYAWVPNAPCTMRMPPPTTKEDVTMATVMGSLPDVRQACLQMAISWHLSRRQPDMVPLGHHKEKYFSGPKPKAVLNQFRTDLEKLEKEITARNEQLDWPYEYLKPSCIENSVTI

The compounds below were run against Polyunsaturated fatty acid lipoxygenase ALOX12 (Homo sapiens) (UniProt P18054) (assay: Primary qHTS assay for inhibitors of human arachidonate 12S-lipoxygenase (ALOX12): Round 2). Conditions: purified 12hLO, xylenol orange hydroperoxide absorbance; activity change, negative = inhibition: at 108 µM (top of the series) unless noted.
In short: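 Purified human 12hLO (150 nM final) in 25 mM Hepes, 0.01% Triton X-100, pH 7.0 was preincubated 15 min at room temperature with compound. Then 40 uM arachidonic acid was added, 30 min. Hydroperoxide was read by Fe-XO absorbance ratio 573/405 nm.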
With `Cc1onc(-c2ccccc2)c1C(=O)NCC1CCCO1` (stereo not given) the Potency was inconclusive: 28.2 µM [inhibitor, partial curve, poor fit].
`O=C(Nc1cc(Br)ccc1O)C1CC(c2c(F)cccc2Cl)=NO1` (stereo not given) was tested, and the Potency was inconclusive: 7.94 µM [inhibitor, full curve, poor fit].
In the case of `O=C(NC12CC3CC(CC(C3)C1)C2)C1CC=CCC1` (stereo not given), the “activity change, negative = inhibition” value is reported as inactive: -18.8%.
With `COc1ccc2c(CNc3ccc(C)cc3)cc(=O)oc2c1` the Potency was inconclusive: 89.1 µM [inhibitor, partial curve, poor fit].
In the case of `CSc1nnc(-c2ccccc2NC(=O)c2cccc(S(=O)(=O)N3CCCCC3)c2)o1`, the Potency is reported as inconclusive: 126 µM [inhibitor, partial curve, poor fit].
For `CC1=CS(=O)(=O)CC1Sc1nc2ccccc2[nH]1` (stereo not given), the Potency was inconclusive: 39.8 µM [inhibitor, partial curve, poor fit].
With `COc1cc(NC(=O)CC2C(=O)N(c3ccc(Cl)cc3)C(=O)N2Cc2cccs2)cc(OC)c1` (stereo not given) the activity change, negative = inhibition was inconclusive: -36.6% [inhibitor].
`CN1C(=O)C(CC(=O)Nc2ccccc2F)N(NC(=O)c2ccc(Br)cc2)C1=S` (stereo not given) was tested, and the Potency was inconclusive: 3.16 µM [inhibitor, full curve, poor fit].
In the case of `CCN(CC)S(=O)(=O)c1ccc2c(c1)nc(CCC(=O)Nc1ccc3c(c1)OCO3)n2C`, the “activity change, negative = inhibition” value is reported as inactive: -1.41%.
For `CC(=O)c1c(C)oc2ccc(NS(=O)(=O)c3ccc(F)cc3C)cc12`, the “activity change, negative = inhibition” value was inactive: -5.9%.
`CC(=O)c1cccc(NC(=O)Nc2c(C)nn(C)c2C)c1` was tested, and the “activity change, negative = inhibition” value was inactive: 0%.
In the case of `C/C=C/c1cccc(-c2nc(C(=O)NC3CCC3)cc3c2[C@H](CCO)N(S(=O)C(C)(C)C)C3)c1` (stereo not given in full), the Potency is reported as inconclusive: 44.7 µM [inhibitor, partial curve, poor fit].
For `CCOc1ccc(-c2nc(C3CC(=O)N(c4ccc(F)c(Cl)c4)C3)no2)cc1OCC` (stereo not given), the “activity change, negative = inhibition” value was inactive: -0.557%.
`CN1CCN(C[C@@H]2CN(C(=O)CCCc3ccccc3)C[C@@H]2CO)CC1` was tested, and the Potency was inconclusive: 22.4 µM [inhibitor, partial curve].
For `Cc1[nH]c2ccccc2c1C(=O)CN1CCCC(C)C1` (stereo not given), the Potency was inconclusive: 17.8 µM [inhibitor, partial curve, poor fit].
In the case of `COc1ccccc1C(NC(=O)C1CCN(CCOc2ccc(Cl)cc2)CC1)c1ccccn1` (stereo not given), the Potency is reported as inconclusive: 44.7 µM [inhibitor, partial curve, poor fit].
`CN(C)c1ccc(NC(=O)c2sc(SCC(=O)Nc3nccs3)nc2N)cc1` was tested, and the “activity change, negative = inhibition” value was inactive: -3.57%.
In the case of `Cc1cccc(C)c1NC(=O)c1oc2ccc3c(c2c1C)C(=O)CC(C)(C)O3`, the “activity change, negative = inhibition” value is reported as inactive: -12.7%.
For `O=C(O)CCC(=O)N1N=C(c2ccco2)CC1c1ccc2nccnc2c1` (stereo not given), the Potency was inconclusive: 112 µM [inhibitor, single point].
In the case of `CCc1ccc2nc(N(CCCN(C)C)C(=O)c3ccc(S(=O)(=O)N4CCCc5ccccc54)cc3)sc2c1`, the Potency is reported as inconclusive: 70.8 µM [inhibitor, partial curve, poor fit].
For `Cc1ccc(NC(=O)N2CCC3(CC2)C(=O)N(CC(=O)N2CCCC2)CN3c2ccccc2)cc1`, the “activity change, negative = inhibition” value was inactive: 5.91%.
In the case of `CC(C)(Oc1ccc(Cl)cc1)C(=O)NC1=NN(c2ccccc2)C(=O)C1`, the Potency is reported as active: 50.1 µM.
In the case of `C=C(CC1([C@@H](NP(=O)(c2ccccc2)c2ccccc2)[C@H]2C[C@@H]2CCCC)CC1)c1ccccc1`, the Potency is reported as inconclusive: 89.1 µM [inhibitor, partial curve, poor fit].
`CN(Cc1ccccc1)C(=O)c1ccc(NC(=O)Cc2cccc(NC(=O)C3CCCN(C(=O)C4CCC4)C3)c2)cc1` (stereo not given) was tested, and the Potency was inconclusive: 70.8 µM [inhibitor, partial curve, poor fit].
For `COCCn1c(CN2CCn3nc(C#N)cc3C2)nnc1C1CC(N)C1` (stereo not given), the “activity change, negative = inhibition” value was inactive: 25.5%.
`O=C(COc1ccc(NC(=O)c2ccccc2)cc1)c1ccccc1` was tested, and the Potency was inconclusive: 31.6 µM [inhibitor, single point].
For `COc1ccc(-c2cc(-c3cc(C)ccc3O)[nH]n2)cc1`, the Potency was inconclusive: 39.8 µM [inhibitor, partial curve, poor fit].
For `O=C(CSc1nc2ccccc2o1)Nc1ccccc1N1CCCCCC1`, the Potency was inconclusive: 50.1 µM [inhibitor, partial curve].
For `CC(C)(C)OC(=O)N/N=C/c1ccccc1OCC(=O)O`, the Potency was inconclusive: 44.7 µM [inhibitor, partial curve, poor fit].
With `COc1ccc(-c2nc(CSC(C)C(=O)Nc3ccccc3)co2)cc1` (stereo not given) the “activity change, negative = inhibition” value was inactive: -6.96%.
For `O=C(CNCc1ccccc1)Nc1ccc(Oc2ccccc2)cc1`, the “activity change, negative = inhibition” value was inactive: 9.94%.
`CC1=C(C(=O)N(C)C)CC(CC(=O)NCCN2CCOCC2)C(=O)N1CCCN1CCCC1=O` (stereo not given) was tested, and the Potency was inconclusive: 39.8 µM [inhibitor, partial curve, poor fit].
In the case of `CS(=O)(=O)OCCCCOS(C)(=O)=O`, the Potency is reported as inconclusive: 11.4 µM [inhibitor, partial curve] and inconclusive: 2 µM [inhibitor, full curve, poor fit].
For `Cc1ccc(S(=O)(=O)N(CC(=O)NCCSc2ccccn2)c2ccc(C)c(C)c2)cc1`, the Potency was inconclusive: 22.4 µM [inhibitor, full curve].
For `C=CCO[C@@H]1CCN2C(=O)c3cc(-c4ccccc4F)ccc3NC(=O)[C@H]12`, the Potency was inconclusive: 39.8 µM [inhibitor, full curve, poor fit].
For `O=C(Nc1nc(-c2ccccc2)cs1)c1ccccc1NS(=O)(=O)c1ccc(F)cc1`, the Potency was inconclusive: 39.8 µM [inhibitor, partial curve, poor fit].
`CN(C)Cc1cn(CC2CCN(C(=O)c3ccc4c(c3)OCO4)CC2)nn1` was tested, and the Potency was inconclusive: 35.5 µM [inhibitor, partial curve, poor fit].
For `CCOC(=O)C1=C(CSc2nc(-c3ccncc3)ccc2C#N)OC(N)=C(C#N)C1c1ccc(OC)cc1` (stereo not given), the “activity change, negative = inhibition” value was inactive: 0%.
`CCc1ccc2c(c1)c(=O)c(S(=O)(=O)c1ccc(F)cc1)cn2CC(=O)Nc1ccc(C)cc1C` was tested, and the “activity change, negative = inhibition” value was inactive: -22.8%.
`COC(=O)c1ccc(CN2CCCC(CO)(Cc3ccccc3F)C2)cc1` (stereo not given) was tested, and the Potency was inconclusive: 22.4 µM [inhibitor, partial curve, poor fit].
